Results from article PMC8384837.
Changes are numbered by the printed parent chain. The list shows a part of the results. For part of these data: At the low end of the ranking, values are background and their order means little.

Experiments:
Conditions in all cases: yeast three-hybrid, YBZ-1, SC-Leu-His + 0.5 mM 3-AT, 4 days
[1] = target: T1, PUM1 PUF domain R3-RQL C935R + R936Q + Q939L (UniProt Q14671)
T1 sequence: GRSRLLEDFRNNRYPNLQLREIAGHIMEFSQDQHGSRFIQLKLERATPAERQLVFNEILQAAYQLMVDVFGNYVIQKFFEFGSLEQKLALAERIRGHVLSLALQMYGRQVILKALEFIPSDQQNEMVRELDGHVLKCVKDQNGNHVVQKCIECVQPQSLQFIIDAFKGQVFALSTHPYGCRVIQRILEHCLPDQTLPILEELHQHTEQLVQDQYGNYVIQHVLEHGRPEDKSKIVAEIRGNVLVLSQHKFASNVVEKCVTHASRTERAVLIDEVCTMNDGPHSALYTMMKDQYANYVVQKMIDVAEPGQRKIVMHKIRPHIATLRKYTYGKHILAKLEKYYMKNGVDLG

[2] = target: T2, PUM1 PUF domain R3-RQR C935R + R936Q + Q939R (Homo sapiens) (UniProt Q14671)
T2 sequence: T1 sequence with L112R

[3] = target: T3, PUM1 PUF domain R3-RQS C935R + R936Q + Q939S (UniProt Q14671)
T3 sequence: T1 sequence with L112S

[4] = target: T4, PUM1 PUF domain R3-RQV C935R + R936Q + Q939V (UniProt Q14671)
T4 sequence: T1 sequence with L112V

[5] = target: T5, PUM1 PUF domain R3-RRA C935R + Q939A (Homo sapiens) (UniProt Q14671)
T5 sequence: T1 sequence with Q109R, L112A

[6] = target: T6, PUM1 PUF domain R3-RRK C935R + Q939K (UniProt Q14671)
T6 sequence: T1 sequence with Q109R, L112K

[7] = target: T7, PUM1 PUF domain R3-RRL C935R + Q939L (Homo sapiens) (UniProt Q14671)
T7 sequence: T1 sequence with Q109R

[8] = target: T8, PUM1 PUF domain R3-RRM C935R + Q939M (Homo sapiens) (UniProt Q14671)
T8 sequence: T1 sequence with Q109R, L112M

[9] = target: T9, PUM1 PUF domain R3-RRP C935R + Q939P (Homo sapiens) (UniProt Q14671)
T9 sequence: T1 sequence with Q109R, L112P

[10] = target: T10, PUM1 PUF domain R3-RRR C935R + Q939R (Homo sapiens) (UniProt Q14671)
T10 sequence: T1 sequence with Q109R, L112R

[11] = target: T11, PUM1 PUF domain R3-RRS C935R + Q939S (Homo sapiens) (UniProt Q14671)
T11 sequence: T1 sequence with Q109R, L112S

[12] = target: T12, PUM1 PUF domain R3-RRW C935R + Q939W (Homo sapiens) (UniProt Q14671)
T12 sequence: T1 sequence with Q109R, L112W

[13] = target: T13, PUM1 PUF domain R3-RSA C935R + R936S + Q939A (Homo sapiens) (UniProt Q14671)
T13 sequence: T1 sequence with Q109S, L112A

[14] = target: T14, PUM1 PUF domain R3-RSF C935R + R936S + Q939F (Homo sapiens) (UniProt Q14671)
T14 sequence: T1 sequence with Q109S, L112F

[15] = target: T15, PUM1 PUF domain R3-RSL C935R + R936S + Q939L (Homo sapiens) (UniProt Q14671)
T15 sequence: T1 sequence with Q109S

[16] = target: T16, PUM1 PUF domain R3-RSR C935R + R936S + Q939R (Homo sapiens) (UniProt Q14671)
T16 sequence: T1 sequence with Q109S, L112R

[17] = target: T17, PUM1 PUF domain R3-RSV C935R + R936S + Q939V (Homo sapiens) (UniProt Q14671)
T17 sequence: T1 sequence with Q109S, L112V

[18] = target: T18, PUM1 PUF domain R3-RSY C935R + R936S + Q939Y (Homo sapiens) (UniProt Q14671)
T18 sequence: T1 sequence with Q109S, L112Y

[19] = target: T19, PUM1 PUF domain R3-RTF C935R + R936T + Q939F (Homo sapiens) (UniProt Q14671)
T19 sequence: T1 sequence with Q109T, L112F

[20] = target: T20, PUM1 PUF domain R3-RTG C935R + R936T + Q939G (Homo sapiens) (UniProt Q14671)
T20 sequence: T1 sequence with Q109T, L112G

[21] = target: T21, PUM1 PUF domain R3-RTI C935R + R936T + Q939I (Homo sapiens) (UniProt Q14671)
T21 sequence: T1 sequence with Q109T, L112I

[22] = target: T22, PUM1 PUF domain R3-RTL C935R + R936T + Q939L (Homo sapiens) (UniProt Q14671)
T22 sequence: T1 sequence with Q109T

[23] = target: T23, PUM1 PUF domain R3-RTM C935R + R936T + Q939M (Homo sapiens) (UniProt Q14671)
T23 sequence: T1 sequence with Q109T, L112M

[24] = target: T24, PUM1 PUF domain R3-RTS C935R + R936T + Q939S (Homo sapiens) (UniProt Q14671)
T24 sequence: T1 sequence with Q109T, L112S

[25] = target: T25, PUM1 PUF domain R3-RTV C935R + R936T + Q939V (Homo sapiens) (UniProt Q14671)
T25 sequence: T1 sequence with Q109T, L112V

[26] = target: T26, PUM1 PUF domain R3-RTW C935R + R936T + Q939W (Homo sapiens) (UniProt Q14671)
T26 sequence: T1 sequence with Q109T, L112W

[27] = target: T27, PUM1 PUF domain R3-RVM C935R + R936V + Q939M (Homo sapiens) (UniProt Q14671)
T27 sequence: T1 sequence with Q109V, L112M

[28] = target: T28, PUM1 PUF domain R3-RVQ C935R + R936V (UniProt Q14671)
T28 sequence: T1 sequence with Q109V, L112Q

[29] = target: T29, PUM1 PUF domain R3-RVS C935R + R936V + Q939S (Homo sapiens) (UniProt Q14671)
T29 sequence: T1 sequence with Q109V, L112S

[30] = target: T30, PUM1 PUF domain R3-RVT C935R + R936V + Q939T (Homo sapiens) (UniProt Q14671)
T30 sequence: T1 sequence with Q109V, L112T

[31] = target: T31, PUM1 PUF domain R3-SQQ C935S + R936Q (UniProt Q14671)
T31 sequence: T1 sequence with R108S, L112Q

[32] = target: T32, PUM1 PUF domain R3-SRL C935S + Q939L (Homo sapiens) (UniProt Q14671)
T32 sequence: T1 sequence with R108S, Q109R

[33] = target: T33, PUM1 PUF domain R3-SRW C935S + Q939W (UniProt Q14671)
T33 sequence: T1 sequence with R108S, Q109R, L112W

Sequence: GGCUAGAACUAGUGGAUCCCCCGGCGCCCGGCGGCUCGAGCCCGGGUAAGUGUAAGUAGUCUGCAUGCCGCCGGGCGCCAUGCCUGCAGGUCGACUCUAGAAAACAUG
- binding signal (log2 enrichment (interaction score)) [1]: -2.18
- binding signal (log2 enrichment (interaction score)) [2]: 0.2
- binding signal (log2 enrichment (interaction score)) [3]: -5.71
- binding signal (log2 enrichment (interaction score)) [4]: -3.34
- binding signal (log2 enrichment (interaction score)) [5]: -1.16
- binding signal (log2 enrichment (interaction score)) [6]: < -6.88
- binding signal (log2 enrichment (interaction score)) [7]: -2.55
- binding signal (log2 enrichment (interaction score)) [8]: 0.28
- binding signal (log2 enrichment (interaction score)) [9]: 0.4
- binding signal (log2 enrichment (interaction score)) [10]: 0.03
- binding signal (log2 enrichment (interaction score)) [11]: -1.31
- binding signal (log2 enrichment (interaction score)) [12]: -1.22
- binding signal (log2 enrichment (interaction score)) [13]: -0
- binding signal (log2 enrichment (interaction score)) [14]: 0.11
- binding signal (log2 enrichment (interaction score)) [15]: 0.94
- binding signal (log2 enrichment (interaction score)) [16]: -1.61
- binding signal (log2 enrichment (interaction score)) [17]: -0.71
- binding signal (log2 enrichment (interaction score)) [18]: 0.05
- binding signal (log2 enrichment (interaction score)) [19]: -1.05
- binding signal (log2 enrichment (interaction score)) [20]: -0.61
- binding signal (log2 enrichment (interaction score)) [21]: 0.5
- binding signal (log2 enrichment (interaction score)) [22]: -1.27
- binding signal (log2 enrichment (interaction score)) [23]: 0.29
- binding signal (log2 enrichment (interaction score)) [24]: -0.46
- binding signal (log2 enrichment (interaction score)) [25]: -0.94
- binding signal (log2 enrichment (interaction score)) [26]: -0.12
- binding signal (log2 enrichment (interaction score)) [27]: -0.75
- binding signal (log2 enrichment (interaction score)) [28]: -2.22
- binding signal (log2 enrichment (interaction score)) [29]: -0.14
- binding signal (log2 enrichment (interaction score)) [30]: -2.52
- binding signal (log2 enrichment (interaction score)) [31]: < -7.22
- binding signal (log2 enrichment (interaction score)) [32]: -1.1
- binding signal (log2 enrichment (interaction score)) [33]: -2.1
